Measured values: paper PMC10530851
No constants are given. Whether binding was seen depends on the method and setting. In cells and extracts the contact can be indirect. Some binding calls cover weakened binding; strength is not graded here.

Sequences of proteins named here, by UniProt entry; tags and fusion partners are left off.
UniProt P46527: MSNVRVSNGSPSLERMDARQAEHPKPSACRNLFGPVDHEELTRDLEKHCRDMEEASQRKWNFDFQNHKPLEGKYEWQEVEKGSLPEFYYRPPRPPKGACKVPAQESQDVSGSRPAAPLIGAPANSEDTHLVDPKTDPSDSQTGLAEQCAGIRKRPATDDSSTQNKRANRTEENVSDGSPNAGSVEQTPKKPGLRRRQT
UniProt Q86TM6: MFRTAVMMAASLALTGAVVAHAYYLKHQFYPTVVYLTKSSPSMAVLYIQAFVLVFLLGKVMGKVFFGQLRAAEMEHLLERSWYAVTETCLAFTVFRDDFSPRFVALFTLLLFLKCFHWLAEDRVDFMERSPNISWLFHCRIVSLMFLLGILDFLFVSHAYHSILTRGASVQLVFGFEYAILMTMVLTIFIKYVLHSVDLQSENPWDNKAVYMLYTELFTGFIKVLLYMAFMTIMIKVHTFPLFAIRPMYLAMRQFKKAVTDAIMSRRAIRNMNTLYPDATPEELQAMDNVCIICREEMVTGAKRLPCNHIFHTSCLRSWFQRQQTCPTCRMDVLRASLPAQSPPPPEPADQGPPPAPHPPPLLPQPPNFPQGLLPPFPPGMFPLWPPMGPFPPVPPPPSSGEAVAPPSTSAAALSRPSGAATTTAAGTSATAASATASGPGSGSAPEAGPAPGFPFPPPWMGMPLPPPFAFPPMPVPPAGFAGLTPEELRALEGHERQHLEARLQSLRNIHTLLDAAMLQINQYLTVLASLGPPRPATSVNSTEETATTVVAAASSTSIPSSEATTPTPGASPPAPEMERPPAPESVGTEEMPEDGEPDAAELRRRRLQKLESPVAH

Assays:
[1] = biological target: p27 (human (endogenous in MHCC-97H and HCCLM3)) (UniProt P46527); experiment: co-IP; endogenous proteins in MHCC-97H and HCCLM3 cell lysates; coimmunoprecipitation kit (Thermo 26149), antibody coupled to resin, lysate overnight at 4 °C, eluate analysed by Western blotting
p27 (in HEK293T cells) = p27 (in HEK293T cells) (UniProt P46527); experiment: co-IP; HEK293T cell lysate; coimmunoprecipitation kit (Thermo 26149), antibody coupled to resin, lysate overnight at 4 °C, eluate analysed by Western blotting

Which binding [1] does the source give for “E3 ubiquitin ligase HRD1 (from UniProt Q86TM6 1-617) (enzyme)” here?
Its binding is “binds”.

“E3 ubiquitin ligase HRD1 (in HEK293T cells) (from UniProt Q86TM6 1-617) (enzyme)” was tested. Which binding (p27 (in HEK293T cells)) did it give?
The binding was “binds”.
